Results are given in words; binding and its absence hold for the method and conditions named. In cells and extracts the contact can be indirect. A yes stands for co-enrichment or nearness to the bait. Other partners may have been found. For some of these results: A no says only that the protein was not detected with the bait.

Amino acid sequences for entries named in this document (tags omitted).
UniProt P78527: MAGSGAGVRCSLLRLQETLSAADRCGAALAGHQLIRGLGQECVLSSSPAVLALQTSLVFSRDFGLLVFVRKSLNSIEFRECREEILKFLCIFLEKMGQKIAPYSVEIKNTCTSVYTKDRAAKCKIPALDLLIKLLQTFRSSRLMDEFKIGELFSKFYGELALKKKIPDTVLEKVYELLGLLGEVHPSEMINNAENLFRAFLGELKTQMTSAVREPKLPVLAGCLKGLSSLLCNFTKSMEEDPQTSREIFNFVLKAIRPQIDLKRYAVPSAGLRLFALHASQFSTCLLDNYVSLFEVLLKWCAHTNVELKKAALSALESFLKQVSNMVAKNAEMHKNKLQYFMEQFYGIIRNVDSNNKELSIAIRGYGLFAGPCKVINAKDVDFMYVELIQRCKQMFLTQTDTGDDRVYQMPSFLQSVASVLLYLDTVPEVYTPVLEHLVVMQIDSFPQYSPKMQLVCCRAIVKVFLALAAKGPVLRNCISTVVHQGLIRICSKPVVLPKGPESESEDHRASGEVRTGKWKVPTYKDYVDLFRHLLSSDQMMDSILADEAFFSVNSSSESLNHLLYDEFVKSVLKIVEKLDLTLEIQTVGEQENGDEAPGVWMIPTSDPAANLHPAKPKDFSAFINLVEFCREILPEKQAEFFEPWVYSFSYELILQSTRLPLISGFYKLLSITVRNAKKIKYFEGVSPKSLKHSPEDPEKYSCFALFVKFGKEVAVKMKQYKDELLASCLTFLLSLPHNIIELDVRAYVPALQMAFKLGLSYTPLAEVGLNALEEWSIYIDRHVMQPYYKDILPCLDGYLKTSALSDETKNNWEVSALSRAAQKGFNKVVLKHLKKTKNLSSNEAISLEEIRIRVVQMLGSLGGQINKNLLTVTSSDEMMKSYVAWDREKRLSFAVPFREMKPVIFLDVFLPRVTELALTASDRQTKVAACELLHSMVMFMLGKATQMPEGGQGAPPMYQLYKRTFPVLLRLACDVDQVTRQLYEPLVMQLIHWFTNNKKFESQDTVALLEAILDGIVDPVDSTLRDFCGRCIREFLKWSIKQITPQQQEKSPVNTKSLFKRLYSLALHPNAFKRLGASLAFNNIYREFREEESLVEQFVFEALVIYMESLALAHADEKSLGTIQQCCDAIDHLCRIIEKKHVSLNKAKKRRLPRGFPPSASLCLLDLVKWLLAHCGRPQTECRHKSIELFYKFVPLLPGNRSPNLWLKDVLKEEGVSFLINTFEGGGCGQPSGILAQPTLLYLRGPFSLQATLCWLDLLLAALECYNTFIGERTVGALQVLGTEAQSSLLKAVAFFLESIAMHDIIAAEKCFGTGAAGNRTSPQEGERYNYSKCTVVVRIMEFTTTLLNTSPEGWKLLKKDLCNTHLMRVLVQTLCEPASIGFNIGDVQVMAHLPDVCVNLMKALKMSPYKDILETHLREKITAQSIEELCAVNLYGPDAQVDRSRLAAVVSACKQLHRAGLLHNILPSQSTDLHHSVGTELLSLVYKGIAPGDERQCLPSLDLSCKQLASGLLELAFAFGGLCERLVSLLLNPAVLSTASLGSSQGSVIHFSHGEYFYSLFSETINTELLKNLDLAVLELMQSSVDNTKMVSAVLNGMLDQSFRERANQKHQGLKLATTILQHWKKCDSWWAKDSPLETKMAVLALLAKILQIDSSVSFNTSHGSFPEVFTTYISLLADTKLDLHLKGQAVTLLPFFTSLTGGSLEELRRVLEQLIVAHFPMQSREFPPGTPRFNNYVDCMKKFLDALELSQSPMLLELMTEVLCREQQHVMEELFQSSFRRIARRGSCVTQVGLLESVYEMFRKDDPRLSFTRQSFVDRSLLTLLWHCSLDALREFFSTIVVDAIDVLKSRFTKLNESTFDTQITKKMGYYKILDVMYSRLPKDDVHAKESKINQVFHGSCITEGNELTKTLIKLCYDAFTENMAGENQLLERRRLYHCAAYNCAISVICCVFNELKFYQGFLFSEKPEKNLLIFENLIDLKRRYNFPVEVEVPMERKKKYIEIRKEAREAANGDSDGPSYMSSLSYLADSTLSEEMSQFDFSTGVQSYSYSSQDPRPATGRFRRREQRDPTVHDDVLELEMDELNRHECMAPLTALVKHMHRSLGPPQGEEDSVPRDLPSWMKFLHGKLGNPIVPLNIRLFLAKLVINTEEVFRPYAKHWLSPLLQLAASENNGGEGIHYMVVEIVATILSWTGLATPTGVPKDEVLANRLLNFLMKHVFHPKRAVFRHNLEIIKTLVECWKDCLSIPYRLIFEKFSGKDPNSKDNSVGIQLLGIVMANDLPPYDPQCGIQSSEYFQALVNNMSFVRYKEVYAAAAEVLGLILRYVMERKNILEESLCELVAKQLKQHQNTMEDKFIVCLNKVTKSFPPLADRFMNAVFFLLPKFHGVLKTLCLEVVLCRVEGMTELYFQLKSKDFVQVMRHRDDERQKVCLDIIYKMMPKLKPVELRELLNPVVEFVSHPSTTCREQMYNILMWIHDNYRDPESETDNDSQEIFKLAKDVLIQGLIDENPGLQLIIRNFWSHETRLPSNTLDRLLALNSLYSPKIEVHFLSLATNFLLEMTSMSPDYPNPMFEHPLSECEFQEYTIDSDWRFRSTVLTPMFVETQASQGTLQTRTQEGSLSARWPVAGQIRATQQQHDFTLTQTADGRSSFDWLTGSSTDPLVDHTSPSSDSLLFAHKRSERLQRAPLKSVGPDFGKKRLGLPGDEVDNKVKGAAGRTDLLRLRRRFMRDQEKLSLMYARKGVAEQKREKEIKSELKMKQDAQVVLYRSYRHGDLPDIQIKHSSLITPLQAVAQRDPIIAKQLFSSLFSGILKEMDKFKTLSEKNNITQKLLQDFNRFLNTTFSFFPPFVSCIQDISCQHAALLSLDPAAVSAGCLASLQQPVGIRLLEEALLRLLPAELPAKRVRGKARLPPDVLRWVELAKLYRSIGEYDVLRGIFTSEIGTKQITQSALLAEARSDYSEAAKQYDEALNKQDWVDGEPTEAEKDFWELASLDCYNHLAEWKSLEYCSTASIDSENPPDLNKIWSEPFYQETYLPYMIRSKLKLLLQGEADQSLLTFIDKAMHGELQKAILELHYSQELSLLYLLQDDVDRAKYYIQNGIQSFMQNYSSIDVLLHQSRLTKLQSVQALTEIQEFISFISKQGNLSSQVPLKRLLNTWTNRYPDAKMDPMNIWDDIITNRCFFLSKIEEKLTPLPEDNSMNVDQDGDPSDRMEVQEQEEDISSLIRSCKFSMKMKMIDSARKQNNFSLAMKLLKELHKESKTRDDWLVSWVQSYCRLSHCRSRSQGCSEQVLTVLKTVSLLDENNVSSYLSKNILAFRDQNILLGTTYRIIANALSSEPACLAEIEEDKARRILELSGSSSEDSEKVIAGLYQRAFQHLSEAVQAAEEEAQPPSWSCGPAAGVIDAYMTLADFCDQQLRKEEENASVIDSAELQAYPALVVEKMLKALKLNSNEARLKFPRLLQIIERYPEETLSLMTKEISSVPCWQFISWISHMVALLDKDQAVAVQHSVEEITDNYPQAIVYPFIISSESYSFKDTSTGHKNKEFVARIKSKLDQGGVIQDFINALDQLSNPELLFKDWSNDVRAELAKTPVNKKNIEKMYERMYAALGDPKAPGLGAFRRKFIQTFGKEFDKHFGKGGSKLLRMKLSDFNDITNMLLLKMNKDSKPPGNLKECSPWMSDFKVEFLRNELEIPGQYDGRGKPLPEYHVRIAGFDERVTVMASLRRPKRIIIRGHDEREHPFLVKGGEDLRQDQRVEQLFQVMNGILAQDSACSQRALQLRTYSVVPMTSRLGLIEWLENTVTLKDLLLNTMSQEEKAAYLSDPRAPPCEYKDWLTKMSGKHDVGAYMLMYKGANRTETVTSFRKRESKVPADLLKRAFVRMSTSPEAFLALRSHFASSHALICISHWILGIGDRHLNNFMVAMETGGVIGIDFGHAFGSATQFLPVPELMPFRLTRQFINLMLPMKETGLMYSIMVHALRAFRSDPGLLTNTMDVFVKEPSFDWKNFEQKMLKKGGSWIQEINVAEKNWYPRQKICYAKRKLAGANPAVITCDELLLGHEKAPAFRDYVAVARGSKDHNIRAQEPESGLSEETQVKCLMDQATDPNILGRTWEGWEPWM
UniProt P12956: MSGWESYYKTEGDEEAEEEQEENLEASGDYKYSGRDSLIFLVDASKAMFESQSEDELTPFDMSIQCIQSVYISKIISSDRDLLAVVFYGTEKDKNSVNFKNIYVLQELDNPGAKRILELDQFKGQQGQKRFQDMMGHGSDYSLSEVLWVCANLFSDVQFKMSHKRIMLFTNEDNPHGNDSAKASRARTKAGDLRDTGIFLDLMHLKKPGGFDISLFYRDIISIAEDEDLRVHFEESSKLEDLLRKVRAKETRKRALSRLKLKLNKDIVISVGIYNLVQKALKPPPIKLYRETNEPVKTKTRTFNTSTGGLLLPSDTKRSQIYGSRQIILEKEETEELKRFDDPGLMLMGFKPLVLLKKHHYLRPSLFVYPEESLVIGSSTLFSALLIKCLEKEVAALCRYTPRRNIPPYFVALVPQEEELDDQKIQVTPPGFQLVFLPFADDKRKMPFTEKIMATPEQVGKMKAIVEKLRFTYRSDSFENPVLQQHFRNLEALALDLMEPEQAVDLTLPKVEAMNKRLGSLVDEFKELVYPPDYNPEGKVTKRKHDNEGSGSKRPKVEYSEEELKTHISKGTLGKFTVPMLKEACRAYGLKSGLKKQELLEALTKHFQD
UniProt P13010: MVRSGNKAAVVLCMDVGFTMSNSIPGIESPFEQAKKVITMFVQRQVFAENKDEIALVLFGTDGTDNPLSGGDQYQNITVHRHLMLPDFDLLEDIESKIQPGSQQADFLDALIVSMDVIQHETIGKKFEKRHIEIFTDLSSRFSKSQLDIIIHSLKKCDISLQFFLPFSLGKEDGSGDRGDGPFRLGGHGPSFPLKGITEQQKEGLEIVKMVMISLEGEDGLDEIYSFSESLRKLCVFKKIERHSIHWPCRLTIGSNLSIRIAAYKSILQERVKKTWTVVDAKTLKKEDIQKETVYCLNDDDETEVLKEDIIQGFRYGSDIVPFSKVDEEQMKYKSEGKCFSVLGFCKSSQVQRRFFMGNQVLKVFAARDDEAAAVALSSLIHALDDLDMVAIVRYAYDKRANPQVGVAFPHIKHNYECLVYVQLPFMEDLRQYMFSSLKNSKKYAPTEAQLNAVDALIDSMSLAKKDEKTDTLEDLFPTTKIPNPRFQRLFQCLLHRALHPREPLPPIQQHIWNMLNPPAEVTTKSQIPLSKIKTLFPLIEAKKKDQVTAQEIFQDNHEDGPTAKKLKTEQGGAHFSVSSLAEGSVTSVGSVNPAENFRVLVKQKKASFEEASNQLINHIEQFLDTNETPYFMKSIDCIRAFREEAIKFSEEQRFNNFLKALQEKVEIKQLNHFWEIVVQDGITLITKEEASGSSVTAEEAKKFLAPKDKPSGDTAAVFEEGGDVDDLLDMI
UniProt P09874: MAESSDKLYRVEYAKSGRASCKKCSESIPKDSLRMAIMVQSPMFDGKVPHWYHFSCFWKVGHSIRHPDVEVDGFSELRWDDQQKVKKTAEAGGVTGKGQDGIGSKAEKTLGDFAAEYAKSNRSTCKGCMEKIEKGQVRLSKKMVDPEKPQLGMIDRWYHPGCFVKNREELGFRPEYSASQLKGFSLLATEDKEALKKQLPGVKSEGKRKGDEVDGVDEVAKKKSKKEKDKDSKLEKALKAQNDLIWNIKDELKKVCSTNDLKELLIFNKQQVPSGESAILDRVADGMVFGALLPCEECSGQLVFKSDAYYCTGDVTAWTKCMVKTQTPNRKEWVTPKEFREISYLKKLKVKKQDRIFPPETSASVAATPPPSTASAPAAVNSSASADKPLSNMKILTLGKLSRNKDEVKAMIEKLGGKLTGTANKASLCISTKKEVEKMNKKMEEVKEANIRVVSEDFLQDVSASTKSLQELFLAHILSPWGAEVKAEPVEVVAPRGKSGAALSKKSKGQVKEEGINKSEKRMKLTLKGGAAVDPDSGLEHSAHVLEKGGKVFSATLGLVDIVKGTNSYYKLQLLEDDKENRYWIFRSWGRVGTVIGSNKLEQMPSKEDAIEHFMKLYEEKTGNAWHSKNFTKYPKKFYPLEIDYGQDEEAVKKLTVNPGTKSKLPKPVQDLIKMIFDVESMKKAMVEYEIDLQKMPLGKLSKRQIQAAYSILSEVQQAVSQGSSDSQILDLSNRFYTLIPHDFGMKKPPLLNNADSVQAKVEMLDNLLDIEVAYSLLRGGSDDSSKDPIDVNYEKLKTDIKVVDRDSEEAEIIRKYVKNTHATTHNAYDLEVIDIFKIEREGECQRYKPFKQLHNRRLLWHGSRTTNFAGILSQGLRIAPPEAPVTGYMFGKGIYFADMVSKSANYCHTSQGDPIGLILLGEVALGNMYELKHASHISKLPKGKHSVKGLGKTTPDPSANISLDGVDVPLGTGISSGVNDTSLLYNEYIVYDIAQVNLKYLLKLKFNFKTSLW

B1: CREM (protein, UniProt Q03060 1-345)
chain: MTMETVESQHDGSITASLTESKSAHVQTQTGQNSIPALAQVSVAGSGTRRGSPAVTLVQLPSGQTIHVQGVIQTPQPWVIQSSEIHTVQVAAIAETDESAESEGVIDSHKRREILSRRPSYRKILNELSSDVPGVPKIEEERSEEEGTPPSIATMAVPTSIYQTSTGQYIAIAQGGTIQISNPGSDGVQGLQALTMTNSGAPPPGATIVQYAAQSADGTQQFFVPGSQVVVQDEETELAPSHMAAATGDMPTYQIRAPTAALPQGVVMAASPGSLHSPQQLAEEATRKRELRLMKNREAAKECRRRKKEYVKCLESRVAVLEVQNKKLIEELETLKDICSPKTDY

The first assay addresses Flag epitope-tagged BRN2 wild type (UniProt P31360). As to the kind of experiment: affinity purification with mass spectrometry; Flag AP-MS from stable 501mel cells expressing BRN2-Flag wild type or truncation mutants (uninduced, or 10 ng of doxycycline); low-salt lysis buffer (50 mM HEPES-NaOH pH 8.0, 100 mM KCl, 2 mM EDTA, 0.1% NP40, 10% glycerol), sonication, benzonase, anti-Flag M2 magnetic beads 2 h at 4°C; SAINTexpress against untagged parental 501mel controls, FDR ≤1%.
Consider “DNA-dependent protein kinase (DNAPK and PRKDC) (from UniProt P78527 1-4128) (enzyme)”, for which the binding result was “binds”. With “Ku70 (XRCC6), endogenous (from UniProt P12956 1-609)”, the binding result was “binds”. The same measure, in the same setting: under “Ku80 (XRCC5), endogenous (from UniProt P13010 1-732)” stands “binds”. Still for that read-out and setting: under “PARP1, endogenous (from UniProt P09874 1-1014) (enzyme)” stands “binds”; under “importin 5 (IPO5) (from UniProt O00410 1-1097)”, “binds”; under p300 (from UniProt Q09472 1-2414), “no binding”.

The target is the same in the next assay. Described as above. This is another data set of the same source.
B1: the binding result was “binds”.
